# From PubChem BioAssay AID504467 (National Center for Advancing Translational Sciences (NCATS), 2011)
# Among all 330,000 compounds or so, about 7,700 (2.3%) were called active. This list was built around the results that the source calls inconclusive (neither active nor inactive); the mix of calls is not that of the screen. Calls come from the whole dose curve; as a rule, active = well fitted inhibition curve with a large enough effect; inconclusive = small, poorly fitted or top-dose-only effect, or effect the other way; inactive = flat fitted curve, though single readings scatter. Where the call is inconclusive, the potency comes from a doubtful curve fit.
# Experiment: qHTS screen for small molecules that inhibit ELG1-dependent DNA repair in human embryonic kidney (HEK293T) cells expressing luciferase-tagged ELG1; note: nearly all actives have a fitted effect of over 55% in size
# Settings: HEK293T ELG1-luciferase reporter, luminescence, 16 h, DNA damage induced by 5-fluorouridine; series mostly up to 46.1 µM
# Summary of the method: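 Cells (2,000 per well) received 5-fluorouridine plus test compound or DMSO and were incubated 16 hr at 37 °C, 5% CO2. Luciferase activity was read by luminescence 30 min after ONE-Glo addition; signal suppression marked inhibition of damage-induced ELG1 function.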
# Potency is the fitted concentration of half-maximal effect.
row,Compound,Potency
1,CCCS(=O)(=O)c1nnnn1-c1cccc(OC)c1,"inconclusive: 29.1 µM [inhibitor, single point]"
2,COCC(=O)N1CCC(Oc2ccc(C(=O)NC(C)c3csc(C)n3)cc2)CC1 (stereo not drawn),inactive
3,CC(C)(C)/C(O)=C/c1nc2ccccc2oc1=O,"inconclusive: 16.4 µM [inhibitor, single point]"
4,CCOc1ccc(CCNC(=O)Cn2cccc2C(=O)c2ccccc2C)cc1OCC,inactive
5,CCn1c(C)[n+](Cc2ccccc2)c2ccc(Cl)cc21,active: 14.6 µM
6,Cc1ccc(C)c(OCCn2cc(/C=C(\C#N)C(=O)NCC3CCCO3)c3ccccc32)c1 (stereo not drawn),active: 16.4 µM
7,O=C(CCC1CCCC1)Nc1cccn(Cc2ccccc2Br)c1=O,inactive
8,CCCNC1=C(N(C(C)=O)c2cccc(F)c2)C(=O)c2ccccc2C1=O,active: 4.61 µM
9,Cc1ccc(N=c2ssnc2Cl)cc1,"inconclusive: 20.6 µM [inhibitor, single point]"
10,CC1CCc2sc(C(=O)Nc3ccc(N4CCOCC4)cc3)cc2C1 (stereo not drawn),"inconclusive: 25.9 µM [inhibitor, partial curve, poor fit]"
11,CC[n+]1c(-c2ccccc2)csc1Nc1c(C)n(C)n(-c2ccccc2)c1=O,"inconclusive: 14.6 µM [inhibitor, single point]"
12,O=C(O)c1cc(NS(=O)(=O)c2ccc(N3CCCCC3)c([N+](=O)[O-])c2)cc(C(=O)O)c1,inactive
13,CCc1nc2ccccc2[nH]c1=O,"inconclusive: 20.6 µM [activator, partial curve, poor fit]"
14,CCOCCN1CCN(c2c(C)c(C)nc3cc(-c4cc(OC)cc(OC)c4)nn23)CC1,active: 16.4 µM
15,COc1ccc(-c2nc3cccc(C)n3c2NCC2CCCO2)cc1O (stereo not drawn),"inconclusive: 6.51 µM [activator, partial curve, poor fit]"
16,C[C@H](CO)N1C[C@H](C)[C@H](CN(C)S(=O)(=O)c2cn(C)cn2)Oc2ccc(NC(=O)Nc3ccc(C(F)(F)F)cc3)cc2CC1=O,"inconclusive: 23.1 µM [activator, partial curve, poor fit]"
17,CN(C)/C=C1\C(=O)N(c2ccc(Cl)cc2)CS1(=O)=O,"inconclusive: 18.4 µM [activator, partial curve, poor fit]"
18,CCOC(=O)c1sc(NC(=O)c2cccnc2)c(C#N)c1C,active: 18.4 µM
19,CC(C)(C)OC(=O)NCCc1nnc(SCc2ccc(Cl)cc2)o1,inactive
20,CC(NS(=O)(=O)c1ccccc1)C(c1cccs1)N1CCN(c2ccccc2)CC1 (stereo not drawn),inactive
21,CCOC(=O)C1CCN(C(=O)c2cc(C)n(C(C)(C)C)n2)CC1,"inconclusive: 11.6 µM [activator, partial curve]"
22,CCOC(=O)c1[nH]c(C)c(C(=O)c2cc(F)ccc2F)c1C,inactive
23,CCOc1ccc(CCNC(=O)CS(=O)(=O)Cc2nc(-c3ccccc3F)oc2C)cc1,inactive
24,COc1ccc(C(CNC(=O)c2ccc(S(=O)(=O)Nc3ccccc3C)cc2)N2CCOCC2)cc1 (stereo not drawn),inactive

# An excerpt of the results above:
row,Compound,Potency
16,C[C@H](CO)N1C[C@H](C)[C@H](CN(C)S(=O)(=O)c2cn(C)cn2)Oc2ccc(NC(=O)Nc3ccc(C(F)(F)F)cc3)cc2CC1=O,"inconclusive: 23.1 µM [activator, partial curve, poor fit]"
17,CN(C)/C=C1\C(=O)N(c2ccc(Cl)cc2)CS1(=O)=O,"inconclusive: 18.4 µM [activator, partial curve, poor fit]"

# Next part.

row,Compound,Potency
1,COc1ccc(C(=O)Nc2cc(-c3ccc(C)cc3)no2)cc1,inactive
2,C=CCN=C1S/C(=C\N(C)C)C(=O)N1S(=O)(=O)c1ccc(C)cc1,active: 2.06 µM
3,O=C(O)C1CCCN1c1ncnc2c1oc1ccccc12 (stereo not drawn),"inconclusive: 13 µM [activator, partial curve]"
4,CCCCN(C)CCNC(=O)CN1C(=O)CSc2ccc(S(=O)(=O)N3CCCCC3)cc21,"inconclusive: 29.1 µM [activator, single point]"
5,CCCCc1nc2ccccc2c(=O)n1NC(=O)c1c(O)c2ccccc2n(C)c1=O,inactive
6,Cc1cc(C)c(C(=O)CN2C(=O)C(=O)N(C3CCCC3)C2=O)cc1C,"inconclusive: 22.4 µM [activator, single point]"
7,COc1ccc2c3c([nH]c2c1)C1CC2C(CC(O)C(OC)C2CO)CN1CC3 (stereo not drawn),inactive
8,CC(Oc1ccc(F)cc1)C(=O)Nc1nc(-c2ccccn2)cs1 (stereo not drawn),"inconclusive: 35.5 µM [activator, single point]"
9,Cc1cccc(C2c3[nH]c4ccccc4c3CCN2C(=O)c2noc3c2CCCC3)n1 (stereo not drawn),"inconclusive: 25.9 µM [inhibitor, partial curve, poor fit]"
10,CCn1c(SCC(=O)N2CCCCC2)nc2c(c1=O)SCC2,inactive
11,Nc1ccc2oc(-c3ccccc3Cl)cc(=O)c2c1O,"inconclusive: 18.4 µM [activator, partial curve]"
12,Cc1cc(C)c(S(=O)(=O)NCCC2CCCN2C)c(C)c1 (stereo not drawn),inactive
13,O=c1ncn(-c2ccc(F)cc2)c2ncccc12,inactive
14,O=C(COC(=O)c1cccnc1Cl)NC1CCCc2ccccc21 (stereo not drawn),inactive
15,COc1ccc(-c2c(C#Cc3ccsc3)c3cc(-c4ccc5c(c4)OCCO5)ccc3n2C)cc1,inactive
16,O=C(O)c1ccc(COc2ccccc2[N+](=O)[O-])o1,"inconclusive: 23.1 µM [activator, single point]"
17,CC(=O)Nc1ccc(S(=O)(=O)N2CCN(C(=O)c3ncoc3-c3cccc(F)c3)CC2)cc1,"inconclusive: 0.231 µM [activator, single point]"
18,CC1CCN(C(=O)COC(=O)c2cc(Cl)cc(Cl)c2N)CC1,"inconclusive: 23.1 µM [activator, partial curve, poor fit]"
19,COCCCNC(=O)Cn1cnc2c(OCc3ccccc3)ncnc21,inactive
20,COc1cccc(C(=O)Nc2ccc3ccccc3c2)c1,"inconclusive: 1.03 µM [activator, full curve]"
21,CCOC(=O)c1cc(-c2ccccc2)nn1CC1CC(c2ccc(OC)cc2)=NO1 (stereo not drawn),"inconclusive: 29.1 µM [inhibitor, single point]"
22,c1ccc(-c2noc(COc3ccc4c(c3)OCO4)n2)cc1,"inconclusive: 18.4 µM [activator, partial curve]"
23,CCn1cnc2cc(NS(=O)(=O)c3ccc(C)cc3)ccc21,"inconclusive: 9.2 µM [inhibitor, partial curve]"
24,Cc1nn(-c2ccccc2)c(Cl)c1/C=N/Nc1nc2ccccc2n1C,"inconclusive: 2.31 µM [activator, partial curve]"
